These are yes or no findings as the source states them, for the method shown. Binding can be weak; no strength is given.
biological target: C. elegans TMEM-132 C-terminus (yeast two-hybrid bait) (C. elegans) (UniProt Q9BL47); experiment: two-hybrid; Matchmaker Gold yeast two-hybrid; TMEM132D or TMEM-132 C-terminus as bait (pGBKT7), NAP1 or GEX-3 as prey (pGADT7); read by yeast colony growth; verified by co-transformation of extracted and re-cloned plasmids

The chains behind the UniProt entries cited, without tags or fusion partners. Where a name states a change or a piece, a line headed by the entry shows the natural chain unless it says otherwise.
UniProt Q9BL47: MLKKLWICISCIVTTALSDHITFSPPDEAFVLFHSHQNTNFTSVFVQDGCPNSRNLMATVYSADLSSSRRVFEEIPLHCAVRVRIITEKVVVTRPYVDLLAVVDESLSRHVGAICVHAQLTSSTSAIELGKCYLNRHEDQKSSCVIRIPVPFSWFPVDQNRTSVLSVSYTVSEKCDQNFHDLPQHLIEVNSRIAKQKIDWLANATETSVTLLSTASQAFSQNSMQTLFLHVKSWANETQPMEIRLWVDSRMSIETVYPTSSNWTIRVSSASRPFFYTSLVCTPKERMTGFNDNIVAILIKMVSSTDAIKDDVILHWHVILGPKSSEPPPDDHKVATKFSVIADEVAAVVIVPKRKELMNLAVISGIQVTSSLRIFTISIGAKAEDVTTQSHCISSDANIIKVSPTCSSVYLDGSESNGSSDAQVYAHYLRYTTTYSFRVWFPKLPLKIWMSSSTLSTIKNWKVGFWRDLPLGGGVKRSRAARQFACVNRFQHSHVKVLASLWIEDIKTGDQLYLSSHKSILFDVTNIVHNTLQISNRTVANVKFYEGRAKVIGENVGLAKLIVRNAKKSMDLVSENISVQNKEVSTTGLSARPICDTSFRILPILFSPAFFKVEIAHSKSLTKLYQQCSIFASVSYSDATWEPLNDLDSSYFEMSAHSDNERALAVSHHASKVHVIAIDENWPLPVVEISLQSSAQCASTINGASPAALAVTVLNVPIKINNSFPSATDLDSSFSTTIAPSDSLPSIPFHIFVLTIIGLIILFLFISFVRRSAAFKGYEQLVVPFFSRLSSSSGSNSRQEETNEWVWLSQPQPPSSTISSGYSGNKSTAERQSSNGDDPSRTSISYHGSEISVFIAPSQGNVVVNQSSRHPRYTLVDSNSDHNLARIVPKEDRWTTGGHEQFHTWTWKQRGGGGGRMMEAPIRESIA

binding	Molecule
binds	GEX-3 C-terminal 60 a.a. fragment (yeast two-hybrid) (from UniProt P55163) (domain or fragment)
binds	GEX-3 C-terminal 600 a.a. fragment (yeast two-hybrid) (from UniProt P55163) (domain or fragment)
binds	GEX-3 full length (yeast two-hybrid) (protein, UniProt P55163 1-1141) MAYKDARQVKIAEKLVILNDRAAGMMTRIYNIKKSSGDSKVKPQFLSDKKMEGAIKHIVRKFPVVDCRSNSSTFEYVQEKSTEITKSLSLYYYTFADILDLKDHIMQVLTTMESCQCQLDVTLNYDLTTSYLNLVVHLVTMMILLSRIEDRKAVLGLFNAAYDLQHGQSEASFPRLGQMILDYENPLKKLHEDLGPLNRLIYSALSSVTHTYQRRNKTADSWRTSNVFSLTAAPAQILYAAQTETIACEYLSLDVIDRWIVFCGTVCHSTLLNDDNIRHMWQLALQMNLCLRVFRDETFIVHQEIQAFLESSKEKSKRLQDVKDAFNHASVTAVAVHADRRRFLRSSLRELSLLLRDQPGLLGPKILYVWMALGAGRDEVIWLLRHQVEVPAISKKGSRMVEELVDRQLPELLFYMLELRDLVTKYYAVIQRYYLQYVSSYDSIVVSEEINQANGLTQEEAVLLTDFANEIGNINSDTDLRALRLDWFRFQAWTSAARSHFQLSRHKKLAIYMNTSVFHLKMIDLQDEMLRETSDLSLYCFYPKLAEKHWLNCLQLPAQARYVLSFARLAAHFTSALHDMCPEEKAFITEKALAQCNSVIEETCKQLSYILEKVAEHEFGLAYQMTPSAVAVRVVAQVVQQKGSGKAAAAAAAAARDYFIAGEESYRVDRQALTMPDKLQTTLLEISAALGAHRQIYVADHTFAPRTYLAQSLETKFVELLHGMFWEGQPHASNPKRPSEMLLALQAYMTVLQNLDTAISVDISNTMQTTLLQQTQLVDSKNKDTIAALYTKWYLEVLLRRASSGHMVWSEHLRTMLSSGQEQLSFMPDHYSDPQELRALVQIIGPYGVKLMTERLIWHVASQIMEMSKIVATYKDALQIARSNFDNAEKMKDVLNLLSVEPKDKKTPNATCAADAILQRTIIIGQICLFRDALHDALRHIVESKLPFLQASFDMLYHNLDDVDKVKIGEMSAAMGVTGPVDMSLVNAVRAQNPNIHPQEHYVNSCLLMVAVAICIPRIGMSDLSSYKPSIQASLNNSHCVPMAINTIGSALFHLHEQNDIQSRMKEFLALASSGILRTIHERDNSRQISDDVLRSHTTLYIILEQMVRKNRWLSMDVLETCFPYNLVRTAYQQCYEADAQ
